Some entries share one result that the patent states for a list of compounds.
These compounds were tested on Wnt-independent Renilla Luciferase (TA-Renilla) reporter in DBTRG-05MG glioblastoma cell line (assay: Renilla read out (TA-Renilla, Wnt-independent reporter; internal control for cell number and toxicity)). Conditions: DBTRG-05MG cells, 24 hours after compound addition.
Format: cell-based
In the case of `CCCC(=O)N1CCN(C(=O)[C@H]2CC[C@H](Cn3c(=O)c4ccccc4n(C)c3=O)CC2)CC1` [Example 5, 3-[trans-4-(4-Butyryl-piperazine-1-carbonyl)-cyclohexylmethyl]-1-methyl-1H-quinazoline-2,4-dione], the “effect in the renilla read out” value is reported as “negligible effect”.
`COc1ccc2c(c1)n(C[C@H]1CC[C@H](C(=O)N3CCN(C(C)=O)CC3)CC1)c(=O)n2C` [Example 17, 3-[trans-4-(4-Acetyl-piperazine-1-carbonyl)-cyclohexylmethyl]-5-methoxy-1-methyl-1,3-dihydro-benzoimidazol-2-one] was tested, and the “effect in the renilla read out” value was “negligible effect”.
In the case of `CN1C(=O)CN(C[C@H]2CC[C@H](C(=O)N3CCN(c4ccccn4)CC3)CC2)C(=O)c2ccccc21` [Example 14, 1-Methyl-4-[trans-4-(4-pyridin-2-yl-piperazine-1-carbonyl)-cyclohexylmethyl]-3,4-dihydro-1H-benzo[e][1,4]diazepine-2,5-dione], the “effect in the renilla read out” value is reported as “negligible effect”.
With `O=C1CN(C[C@H]2CC[C@H](C(=O)N3CCN(c4ccccn4)CC3)CC2)C(=O)c2ccccc2N1` [Example 13, 4-[trans-4-(4-pyridin-2-yl-piperazine-1-carbonyl)-cyclohexylmethyl]-3,4-dihydro-1H-benzo[e][1,4]diazepine-2,5-dione] the “effect in the renilla read out” value was “negligible effect”.
For `Cn1c(=O)n(C[C@H]2CC[C@H](C(=O)N3CCN(c4ccccc4)CC3)CC2)c(=O)c2ccccc21` [Example 2, trans-1-Methyl-3-[4-(4-phenyl-piperazine-1-carbonyl)-cyclohexylmethyl]-1H-quinazoline-2,4-dione], the “effect in the renilla read out” value was “negligible effect”.
`O=C1Nc2ccccc2CCN1C[C@H]1CC[C@H](C(=O)N2CCN(c3ccccn3)CC2)CC1` [Example 16, 3-[trans-4-(4-pyridin-2-yl-piperazine-1-carbonyl)-cyclohexylmethyl]-1,3,4,5-tetrahydro-benzo[d][1,3]diazepin-2-one] was tested, and the “effect in the renilla read out” value was “negligible effect”.

Reference: patent US8865704B2, “Wnt pathway antagonists” (Siena Biotech S.p.A., priority 2009, dated 2014)
